According to paper doi:10.1101/2024.06.15.599175:

B1: 50S ribosomal protein L22 (protein, UniProt Q9HWE0 1-110)
chain: MEVAAKLSGARISAQKARLVADQIRGKKVGEALNLLAFSSKKAAEIMKKVLESAVANAEHNEGADVDDLKVSTVFVNEGRSLKRIMPRAKGRADRIVKRSCHITVKVADK
B2: 50S ribosomal protein L4 (protein, UniProt Q9HWD6 1-200)
chain: MQLNVNGAQAIEVSERTFGGEFNETLVHQAVVAYMAGGRQGSKAQKTRSEVSGGGKKPWRQKGTGRARAGTIRSPIWRGGGTTFAAKPRSHEQKLNKKMYRAALRSILAELVRLDRLVVVADFAVDAPKTKGLVAKLDTLGLKDVLIVTDGVDENLYLAARNLAHVDVRDVQGSDPVSLIAYDKVLVTVSAVKKFEELLG
B3: 30S ribosomal protein S9 (protein, UniProt Q9HVY3 1-130)
chain: MSATQNYGTGRRKTATARVFLRPGTGKISINNRGLDQFFGRETARMVVRQPLELTETVEKFDIFVTVVGGGVSGQAGAIRHGITRALIEYDETLRSSLRKAGYVTRDAREVERKKVGLRKARKRPQYSKR

Biological target: gp335-sfGFP (gp335 of Pseudomonas phage Churi with C-terminal sfGFP) (Pseudomonas phage Churi)
Assay: affinity purification with mass spectrometry

Binder | binding
B1 | binds
B2 | binds
B3 | binds

No constants are given. Whether binding was seen depends on the method and setting. Binding seen in cells or lysates may run through a third protein. Here binding means that the protein was enriched with, or labelled near, the bait; the list need not be complete.
